Assay results: publication PMC6138628 (Scientific Reports, 2018)

Assay: general procedure: Fmoc solid-phase peptide synthesis
Details: whole synthesis

PEPTIDE1{H.G.L.A.S.T.L.T.R.W.A.H.Y.N.A.L.I.R.A.F.[am]}$$$$V2.0
purity (crude or final not stated): higher than 98%

HELM strings list residues between dots; [ac] is acetyl, [am] amide, other brackets name non-standard units.
